These are yes or no findings as the source states them, for the method shown. In cells and extracts the contact can be indirect. Here binding means that the protein was enriched with, or labelled near, the bait; the list need not be complete. Sequences can lack the tags named with a protein.
Target: T1, YFP:RAB-A5c (Arabidopsis thaliana) (UniProt P28187)
T1 sequence: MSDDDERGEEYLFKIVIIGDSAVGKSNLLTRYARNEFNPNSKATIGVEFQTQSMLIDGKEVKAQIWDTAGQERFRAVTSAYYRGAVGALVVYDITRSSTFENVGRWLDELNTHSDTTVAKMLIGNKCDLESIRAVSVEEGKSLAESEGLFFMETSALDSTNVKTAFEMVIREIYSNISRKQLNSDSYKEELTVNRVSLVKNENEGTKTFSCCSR
Assay: affinity purification with mass spectrometry

binding: binds
B1: RECEPTOR-LIKE PROTEIN 4 (receptor, UniProt F4HWL3 23-626)
chain: RPAPYALRISCGARKNVRTPPTYALWFKDIAYTGGVPANATTPTYITPPLKTLRYFPISEGPNNCYNIVRVPKGHYSVRIFFGLVDQPSFDKEPLFDISIEGTQISSLKSGWSSQDDQVFAEALIFLLGGTATICFHSTGHGDPAILSIEILQVDDKAYSFGEGWGQGVILRTATRLTCGTGKSRFDEDYRGDHWGGDRFWNRMRSFGKSADSPRSTEETIKKASVSPNFYPEGLYQSALVSTDDQPDLTYSLDVEPNRNYSVWLHFAEIDNTITAEGKRVFDVVINGDTFFEDVDIIKMSGGRYAALVLNATVTVSGRTLTVVLQPKAGGHAIINAIEVFEIITAEFKTLRDEVSALQKMKKALGLPSRFGWNGDPCVPPQHPWSGANCQLDKNTSRWFIDGLDLDNQGLKGFLPNDISKLKHLQSINLSENNIRGGIPASLGSVTSLEVLDLSYNSFNGSIPETLGELTSLRILNLNGNSLSGKVPAAVGGRLLHRASFNFTDNAGLCGIPGLPACGPHLSSGAKIGIAFGVSLAFLLIVACAMIWWKRRQNILRAQQIAARGAPYAKKRTHVSHDIQMSRHGHNNHGQARTAVENGPSLLS
